Counter-ions that a name gives are not always drawn. The list shows a part of the results. Hit calls seldom repeat between salt and free forms of one compound.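 Kinases, fused to nanoluciferase, were expressed in K562 cells; luminescence was measured every 4 h from 2 to 18 h as percent of control (DMSO = 100%, positive control = 0%). A time point is decreased if signal falls significantly (2 sigma). Hits were called by the authors by a rule that is not shown; the count of time points alone does not decide it.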
How the values were obtained:
Assay in all cases: number of time points (of 5) at which kinase-Nluc abundance scored as decreased, DMSO-normalised (count); higher = more persistent destabilization
Conditions in all cases: K562; 2-18 h
EGFR_L861Q = EGFR_L861Q (UniProt P00533)
EGFR_T790M = EGFR_T790M (UniProt P00533)
EPHA2 = EPHA2 (UniProt P29317)
ERBB3 = ERBB3 (UniProt P21860)
[1] = biological target: ERBB4_R711C (clone: ERBB4_mut) (UniProt Q15303)
ERN1 = ERN1 (UniProt O75460)
FGFR1 = FGFR1 (UniProt P11362)
FGFR2 = FGFR2 (UniProt P21802)
FGFR3 = FGFR3 (UniProt P22607)
FGR = FGR (UniProt P09769)
FLT3 = FLT3 (UniProt P36888)
FYN = FYN (UniProt P06241)
GSK3A = GSK3A (UniProt P49840)
HER2 = HER2 (UniProt P04626)
INSRR = INSRR (UniProt P14616)
IRAK3 = IRAK3 (UniProt Q9Y616)
JAK1 = JAK1 (UniProt P23458)
LCK = LCK (UniProt P06239)
LIMK1 = LIMK1 (UniProt P53667)
LIMK2 = LIMK2 (UniProt P53671)

The chains behind the UniProt entries cited, without tags or fusion partners. Where a name states a change or a piece, a line headed by the entry shows the natural chain unless it says otherwise.
UniProt Q15303, whole entry R711C: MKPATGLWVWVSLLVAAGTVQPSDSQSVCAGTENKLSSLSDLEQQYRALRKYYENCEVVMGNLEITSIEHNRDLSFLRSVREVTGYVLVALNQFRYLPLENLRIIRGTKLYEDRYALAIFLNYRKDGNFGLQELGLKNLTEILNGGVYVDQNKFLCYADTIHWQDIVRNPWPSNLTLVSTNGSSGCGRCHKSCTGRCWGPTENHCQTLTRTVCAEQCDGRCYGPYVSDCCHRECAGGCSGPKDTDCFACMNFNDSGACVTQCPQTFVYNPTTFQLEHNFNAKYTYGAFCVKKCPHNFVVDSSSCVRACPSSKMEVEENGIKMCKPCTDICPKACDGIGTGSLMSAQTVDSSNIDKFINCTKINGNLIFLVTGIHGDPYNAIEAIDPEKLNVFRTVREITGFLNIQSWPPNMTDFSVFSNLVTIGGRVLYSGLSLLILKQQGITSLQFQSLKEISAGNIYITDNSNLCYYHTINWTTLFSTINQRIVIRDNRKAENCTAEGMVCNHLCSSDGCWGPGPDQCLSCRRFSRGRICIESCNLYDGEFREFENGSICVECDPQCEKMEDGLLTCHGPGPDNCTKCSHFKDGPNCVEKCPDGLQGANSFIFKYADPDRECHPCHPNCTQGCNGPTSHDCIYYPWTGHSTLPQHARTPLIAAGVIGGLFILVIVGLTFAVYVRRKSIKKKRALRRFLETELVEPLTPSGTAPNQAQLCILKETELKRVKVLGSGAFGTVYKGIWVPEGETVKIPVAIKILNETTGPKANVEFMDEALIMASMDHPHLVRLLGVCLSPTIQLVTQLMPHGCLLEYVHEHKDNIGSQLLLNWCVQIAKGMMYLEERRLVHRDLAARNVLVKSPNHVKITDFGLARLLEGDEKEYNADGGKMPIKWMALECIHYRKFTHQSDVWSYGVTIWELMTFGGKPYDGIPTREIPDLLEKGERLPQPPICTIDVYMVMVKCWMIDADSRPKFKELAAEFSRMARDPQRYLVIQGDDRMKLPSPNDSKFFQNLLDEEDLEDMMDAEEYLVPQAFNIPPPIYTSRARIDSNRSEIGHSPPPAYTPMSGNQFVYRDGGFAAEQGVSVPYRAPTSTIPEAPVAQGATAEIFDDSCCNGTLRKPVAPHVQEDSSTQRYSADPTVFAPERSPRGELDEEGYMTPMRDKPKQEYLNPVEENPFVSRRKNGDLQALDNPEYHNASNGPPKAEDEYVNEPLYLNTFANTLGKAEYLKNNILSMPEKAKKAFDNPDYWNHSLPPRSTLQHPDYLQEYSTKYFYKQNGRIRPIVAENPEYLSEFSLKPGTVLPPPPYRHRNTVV
UniProt P21802, whole entry, looked up: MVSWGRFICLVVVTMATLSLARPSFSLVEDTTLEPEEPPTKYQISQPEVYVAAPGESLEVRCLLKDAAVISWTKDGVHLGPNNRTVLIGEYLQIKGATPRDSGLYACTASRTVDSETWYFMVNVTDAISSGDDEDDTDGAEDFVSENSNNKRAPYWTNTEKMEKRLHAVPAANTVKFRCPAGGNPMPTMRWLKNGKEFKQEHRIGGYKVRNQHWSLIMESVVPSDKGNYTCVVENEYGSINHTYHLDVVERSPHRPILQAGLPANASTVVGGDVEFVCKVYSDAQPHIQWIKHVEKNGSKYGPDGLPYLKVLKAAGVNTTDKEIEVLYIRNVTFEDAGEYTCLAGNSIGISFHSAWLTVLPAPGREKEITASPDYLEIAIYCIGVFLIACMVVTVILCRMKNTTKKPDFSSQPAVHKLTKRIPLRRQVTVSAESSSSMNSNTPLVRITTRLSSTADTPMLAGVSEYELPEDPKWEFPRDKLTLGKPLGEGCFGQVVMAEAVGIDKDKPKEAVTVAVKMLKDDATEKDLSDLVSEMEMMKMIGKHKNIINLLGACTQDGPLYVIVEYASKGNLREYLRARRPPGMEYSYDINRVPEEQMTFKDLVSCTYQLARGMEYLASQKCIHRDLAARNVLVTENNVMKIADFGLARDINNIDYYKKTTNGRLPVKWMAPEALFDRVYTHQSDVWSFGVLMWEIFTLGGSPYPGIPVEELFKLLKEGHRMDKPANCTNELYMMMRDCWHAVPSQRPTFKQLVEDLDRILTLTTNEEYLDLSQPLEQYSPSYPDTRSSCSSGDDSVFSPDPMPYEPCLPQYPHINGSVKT
UniProt P06241, whole entry, looked up: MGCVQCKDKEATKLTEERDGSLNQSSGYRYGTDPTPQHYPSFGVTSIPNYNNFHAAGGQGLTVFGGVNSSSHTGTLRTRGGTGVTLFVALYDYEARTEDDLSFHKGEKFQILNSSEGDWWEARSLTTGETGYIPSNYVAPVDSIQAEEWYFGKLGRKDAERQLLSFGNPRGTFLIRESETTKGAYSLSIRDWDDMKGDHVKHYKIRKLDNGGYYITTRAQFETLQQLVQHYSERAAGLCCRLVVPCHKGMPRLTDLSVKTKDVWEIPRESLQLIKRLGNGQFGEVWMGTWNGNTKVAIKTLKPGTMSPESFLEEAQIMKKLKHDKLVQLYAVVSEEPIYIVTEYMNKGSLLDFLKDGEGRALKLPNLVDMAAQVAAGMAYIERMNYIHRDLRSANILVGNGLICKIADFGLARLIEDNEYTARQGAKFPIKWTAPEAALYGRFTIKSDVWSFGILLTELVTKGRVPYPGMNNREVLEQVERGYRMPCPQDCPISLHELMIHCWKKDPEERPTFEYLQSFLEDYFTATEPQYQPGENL
UniProt P14616: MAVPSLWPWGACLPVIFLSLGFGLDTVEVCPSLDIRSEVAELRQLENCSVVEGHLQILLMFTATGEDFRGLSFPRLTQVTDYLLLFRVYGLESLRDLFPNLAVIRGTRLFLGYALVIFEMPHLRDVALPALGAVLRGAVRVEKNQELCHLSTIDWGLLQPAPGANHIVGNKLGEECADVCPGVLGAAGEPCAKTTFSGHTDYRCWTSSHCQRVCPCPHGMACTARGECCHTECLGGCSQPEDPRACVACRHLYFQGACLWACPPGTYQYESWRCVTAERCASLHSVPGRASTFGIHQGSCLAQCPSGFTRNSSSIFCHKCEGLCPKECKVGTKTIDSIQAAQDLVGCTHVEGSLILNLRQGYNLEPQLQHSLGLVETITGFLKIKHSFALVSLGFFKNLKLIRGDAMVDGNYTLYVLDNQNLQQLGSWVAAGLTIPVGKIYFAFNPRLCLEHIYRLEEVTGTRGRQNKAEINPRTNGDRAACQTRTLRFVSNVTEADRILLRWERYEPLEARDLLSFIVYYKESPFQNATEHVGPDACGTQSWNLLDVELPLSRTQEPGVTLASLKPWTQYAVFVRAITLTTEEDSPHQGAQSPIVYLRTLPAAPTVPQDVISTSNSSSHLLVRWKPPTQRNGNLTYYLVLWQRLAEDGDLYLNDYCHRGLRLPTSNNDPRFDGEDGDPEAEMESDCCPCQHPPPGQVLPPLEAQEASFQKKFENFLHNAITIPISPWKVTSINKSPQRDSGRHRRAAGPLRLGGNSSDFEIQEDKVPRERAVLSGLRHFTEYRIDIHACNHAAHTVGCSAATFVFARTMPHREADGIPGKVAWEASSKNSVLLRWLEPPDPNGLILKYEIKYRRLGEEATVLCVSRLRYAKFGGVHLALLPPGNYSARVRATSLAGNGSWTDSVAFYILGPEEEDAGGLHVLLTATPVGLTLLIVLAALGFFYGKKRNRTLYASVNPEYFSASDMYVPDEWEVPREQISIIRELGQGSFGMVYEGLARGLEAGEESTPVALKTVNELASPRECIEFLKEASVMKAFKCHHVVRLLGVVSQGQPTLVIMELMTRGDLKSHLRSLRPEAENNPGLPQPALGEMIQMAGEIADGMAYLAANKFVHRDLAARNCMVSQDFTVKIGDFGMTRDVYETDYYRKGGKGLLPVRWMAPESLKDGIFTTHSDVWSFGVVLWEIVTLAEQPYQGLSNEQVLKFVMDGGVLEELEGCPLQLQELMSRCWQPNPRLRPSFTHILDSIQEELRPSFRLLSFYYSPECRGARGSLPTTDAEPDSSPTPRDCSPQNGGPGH
UniProt Q9Y616: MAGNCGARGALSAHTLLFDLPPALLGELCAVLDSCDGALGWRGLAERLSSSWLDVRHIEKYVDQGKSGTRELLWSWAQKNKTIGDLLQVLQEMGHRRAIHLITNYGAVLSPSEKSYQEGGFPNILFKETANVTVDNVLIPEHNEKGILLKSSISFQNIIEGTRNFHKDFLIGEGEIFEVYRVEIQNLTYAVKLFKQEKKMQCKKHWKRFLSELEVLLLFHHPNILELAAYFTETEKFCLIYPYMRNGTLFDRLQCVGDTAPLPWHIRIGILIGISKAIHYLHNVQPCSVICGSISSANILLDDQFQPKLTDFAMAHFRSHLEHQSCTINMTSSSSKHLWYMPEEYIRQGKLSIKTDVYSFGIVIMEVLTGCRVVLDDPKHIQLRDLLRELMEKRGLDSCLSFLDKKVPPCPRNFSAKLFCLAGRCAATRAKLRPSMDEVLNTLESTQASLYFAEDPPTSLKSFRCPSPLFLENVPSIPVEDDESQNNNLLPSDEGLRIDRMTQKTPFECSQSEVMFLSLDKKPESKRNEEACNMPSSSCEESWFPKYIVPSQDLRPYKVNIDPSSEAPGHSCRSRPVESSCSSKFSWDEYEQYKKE
UniProt P23458: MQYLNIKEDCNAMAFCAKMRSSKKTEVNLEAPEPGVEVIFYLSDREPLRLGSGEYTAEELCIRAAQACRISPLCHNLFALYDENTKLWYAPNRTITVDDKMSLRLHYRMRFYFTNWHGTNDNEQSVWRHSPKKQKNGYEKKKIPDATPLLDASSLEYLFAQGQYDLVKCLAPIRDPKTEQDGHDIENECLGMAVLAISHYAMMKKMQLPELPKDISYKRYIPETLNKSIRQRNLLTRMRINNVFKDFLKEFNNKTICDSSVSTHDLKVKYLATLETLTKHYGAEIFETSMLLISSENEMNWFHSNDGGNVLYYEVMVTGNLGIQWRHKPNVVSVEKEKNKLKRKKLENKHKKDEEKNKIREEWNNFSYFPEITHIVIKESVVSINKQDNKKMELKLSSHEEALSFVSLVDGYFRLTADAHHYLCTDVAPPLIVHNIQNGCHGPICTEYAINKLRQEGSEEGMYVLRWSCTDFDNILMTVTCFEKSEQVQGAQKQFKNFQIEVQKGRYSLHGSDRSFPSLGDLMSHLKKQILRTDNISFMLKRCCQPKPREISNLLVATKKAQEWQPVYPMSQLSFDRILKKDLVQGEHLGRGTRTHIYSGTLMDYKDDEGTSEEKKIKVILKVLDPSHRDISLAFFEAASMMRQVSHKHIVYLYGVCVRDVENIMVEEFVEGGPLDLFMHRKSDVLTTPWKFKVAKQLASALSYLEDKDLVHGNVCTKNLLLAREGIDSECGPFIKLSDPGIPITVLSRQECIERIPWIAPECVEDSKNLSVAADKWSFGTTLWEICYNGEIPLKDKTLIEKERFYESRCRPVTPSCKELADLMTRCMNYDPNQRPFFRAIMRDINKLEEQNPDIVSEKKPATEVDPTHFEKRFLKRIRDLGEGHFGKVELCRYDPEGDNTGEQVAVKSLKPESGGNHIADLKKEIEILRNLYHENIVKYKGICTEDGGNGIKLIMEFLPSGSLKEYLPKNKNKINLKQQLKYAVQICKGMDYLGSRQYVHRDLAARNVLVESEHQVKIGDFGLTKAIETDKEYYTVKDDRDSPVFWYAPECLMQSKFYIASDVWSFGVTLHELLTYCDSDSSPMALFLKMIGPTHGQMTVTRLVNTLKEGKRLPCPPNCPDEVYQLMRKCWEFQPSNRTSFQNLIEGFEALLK
UniProt P06239: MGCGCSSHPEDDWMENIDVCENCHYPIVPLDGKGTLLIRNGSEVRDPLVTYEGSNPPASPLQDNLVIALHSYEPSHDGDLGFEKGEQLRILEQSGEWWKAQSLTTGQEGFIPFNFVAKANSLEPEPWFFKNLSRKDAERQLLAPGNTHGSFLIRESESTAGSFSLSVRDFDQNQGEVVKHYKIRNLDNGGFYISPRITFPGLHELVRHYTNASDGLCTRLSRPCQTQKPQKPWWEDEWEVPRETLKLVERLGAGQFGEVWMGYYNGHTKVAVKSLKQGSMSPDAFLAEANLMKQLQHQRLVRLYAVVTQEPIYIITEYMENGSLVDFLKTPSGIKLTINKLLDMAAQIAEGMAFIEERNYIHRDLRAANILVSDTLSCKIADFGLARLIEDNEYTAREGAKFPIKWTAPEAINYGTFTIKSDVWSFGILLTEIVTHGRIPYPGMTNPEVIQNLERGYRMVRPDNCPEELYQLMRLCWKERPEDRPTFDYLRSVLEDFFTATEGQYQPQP

SMILES | number of time points (EGFR_L861Q) | number of time points (EGFR_T790M) | number of time points (EPHA2) | number of time points (ERBB3) | number of time points [1] | number of time points (ERN1) | number of time points (FGFR1) | number of time points (FGFR2) | number of time points (FGFR3) | number of time points (FGR) | number of time points (FLT3) | number of time points (FYN) | number of time points (GSK3A) | number of time points (HER2) | number of time points (INSRR) | number of time points (IRAK3) | number of time points (JAK1) | number of time points (LCK) | number of time points (LIMK1) | number of time points (LIMK2)
c1cncc(CN2CCC(n3ncc4c(N5CCOCC5)nc(-c5ccc6[nH]ccc6c5)nc43)CC2)c1 (10 µM) | 2 | 0 | 0 | 4 | 0 | 2 | 5 | 4 | 0 | 0 | 0 | 4 | 0 | 2 | 4 | 2 | 4 | 0 | 5 | 4
Nc1nc2ccc(Cl)cc2c2nc(-c3ccco3)nn12 (10 µM) | 0 | 0 | 0 | 0 | 0 | 0 | 0 | 0 | 0 | 0 | 0 | 0 | 0 | 0 | 0 | 0 | 0 | 0 | 0 | 0
Cc1ccc(CNc2ncnc3ccc(-c4ccc(CO)o4)cc23)o1 (10 µM) | 0 | 0 | 0 | 0 | 0 | 0 | 0 | 0 | 0 | 0 | 0 | 0 | 0 | 0 | 0 | 0 | 0 | 0 | 0 | 0
Cc1[nH]c(/C=C2\C(=O)Nc3ccc(F)cc32)c(C)c1C(=O)N[C@H]1CCN(C(=O)N(C)C)C1 [Vorolanib] (10 µM) | 0 | 0 | 0 | 0 | 0 | 0 | 0 | 0 | 0 | 0 | 0 | 0 | 0 | 0 | 0 | 0 | 0 | 0 | 0 | 0
Cc1cccc(Oc2cnc(=O)[nH]c2)c1 [Tolimidone] (10 µM) | 0 | 0 | 0 | 0 | 0 | 0 | 0 | 0 | 0 | 0 | 0 | 0 | 0 | 0 | 0 | 0 | 0 | 0 | 0 | 0
CC1CCc2c(cc(Br)c(F)c2Br)N1C=O (stereo not given) (10 µM) | 0 | 0 | 0 | 0 | 0 | 0 | 0 | 0 | 0 | 0 | 0 | 0 | 0 | 0 | 0 | 0 | 0 | 0 | 0 | 0
Cn1nccc1Nc1nccc(-c2ccn([C@H](CO)c3ccc(Cl)c(F)c3)c(=O)c2)n1 [Ravoxertinib] (10 µM) | 0 | 0 | 0 | 0 | 0 | 0 | 0 | 0 | 0 | 0 | 0 | 0 | 0 | 0 | 0 | 0 | 0 | 0 | 0 | 0
CNc1nc(Nc2ccc(C(=O)N3CCOCC3)cc2OC)nc2[nH]cc(Cl)c12 (2.5 µM) | 0 | 0 | 0 | 0 | 0 | 0 | 0 | 0 | 0 | 0 | 0 | 0 | 0 | 0 | 0 | 0 | 0 | 0 | 0 | 0
Cc1cc(O)c2c(c1)C(=O)c1cc(O)cc(O)c1C2=O [Emodin] (10 µM) | 0 | 0 | 0 | 0 | 0 | 0 | 0 | 0 | 0 | 0 | 0 | 0 | 0 | 0 | 0 | 0 | 0 | 0 | 0 | 0
CS(=O)(=O)Nc1cc(-c2ccc3ncnc(Nc4ccc(F)c(Cl)c4)c3c2)cnc1Cl (2.5 µM) | 0 | 0 | 0 | 0 | 3 | 0 | 0 | 0 | 0 | 0 | 2 | 1 | 0 | 0 | 0 | 2 | 0 | 0 | 0 | 0
O=Nc1c(-c2c(O)[nH]c3ccc(F)cc23)[nH]c2ccccc12 [5'-Fluoroindirubinoxime] (10 µM) | 0 | 0 | 0 | 0 | 0 | 0 | 5 | 5 | 0 | 0 | 0 | 0 | 0 | 0 | 0 | 0 | 0 | 0 | 0 | 0
O=C(CSC1=NCCN1)NC1CCCCCC1 [ICCB-19 (hydrochloride)] (2.5 µM) | 0 | 0 | 0 | 0 | 0 | 0 | 0 | 0 | 0 | 0 | 0 | 0 | 0 | 0 | 0 | 0 | 0 | 0 | 0 | 0

Entries of single compounds, quoted from the list. Values in the order: number of time points (EGFR_L861Q) | number of time points (EGFR_T790M) | number of time points (EPHA2) | number of time points (ERBB3) | number of time points [1] | number of time points (ERN1) | number of time points (FGFR1) | number of time points (FGFR2) | number of time points (FGFR3) | number of time points (FGR) | number of time points (FLT3) | number of time points (FYN) | number of time points (GSK3A) | number of time points (HER2) | number of time points (INSRR) | number of time points (IRAK3) | number of time points (JAK1) | number of time points (LCK) | number of time points (LIMK1) | number of time points (LIMK2)
CS(=O)(=O)Nc1cc(-c2ccc3ncnc(Nc4ccc(F)c(Cl)c4)c3c2)cnc1Cl (2.5 µM) is listed as 0 | 0 | 0 | 0 | 3 | 0 | 0 | 0 | 0 | 0 | 2 | 1 | 0 | 0 | 0 | 2 | 0 | 0 | 0 | 0
Cc1cccc(Oc2cnc(=O)[nH]c2)c1 [Tolimidone] (10 µM) is listed as 0 | 0 | 0 | 0 | 0 | 0 | 0 | 0 | 0 | 0 | 0 | 0 | 0 | 0 | 0 | 0 | 0 | 0 | 0 | 0

Source: the supplement of paper PMC12823440, “Inhibitors supercharge kinase turnover through native proteolytic circuits” (Nature, 2025)
